# Assay results taken from US20250011484A1, “METHODS FOR PREPARING METALLOCENE COMPOUNDS” (Chevron Phillips Chemical Company LP, priority 2023, published 2025).
# Assay: Metallocene-catalyzed oligomerization of 1-decene
# Conditions: 110° C.
# Protocol: Metallocene-catalyzed oligomerizations were performed using MET-A and MET-D as follows. Generally, 1-decene was oligomerized to an oligomer product of dimers, trimers, and tetramers in the presence of MET-A or MET-D, as noted in Table II below. For Examples 8-9, a 1-gallon batch reactor was charged with 675 g of 1-decene. A syringe was charged with CTSO (0.750 g), TIBA (1.3 mL of a 1.0 M hexane solution), and metallocene (5 mg). The chemically treated solid oxide (CTSO) was a fluorided silica-coated alumina (60:40 alumina:silica by weight) containing 4 wt. % F and having a d50 average particle size of 35 microns, a BET surface area of 450 m^2/g, and a pore volume of 1.1 mL/g. The catalyst mixture was shaken to mix and was then charged to the reactor under a nitrogen purge. The reactor was heated to 110° C. while stirring at 600-900 rpm. Once the reactor temperature reached setpoint, 633 mg of hydrogen was charged to the reactor. After 1 hour, the reactor was cooled to 35° C. A solution of 10% HCl in isopropyl alcohol (10 mL total charge) was added and the reactor contents were removed.
# The reaction mixture was then filtered and analyzed by gas chromatography to determine the yield of oligomer product formed in the reaction mixture, and to determine the relative amount of certain oligomers within the oligomer product (e.g., the trimer:tetramer weight ratio).
# Gas chromatographic (GC) analyses were performed using a split injection method on a Bruker 430-GC gas chromatograph with a flame ionization detector (FID). Initial oven temperature was 70° C. for 2 minutes and increased 5° C./min to 290° C. and held for 7 minutes. The column was an all-purpose capillary column (Agilent J&W VF-5 ms, 30 m×0.25 mm×0.25 μm). Data analysis was performed using CompassCDS software.
# The distribution of olefin end groups was determined using ^1H NMR on a Bruker 300 MHz NMR. Spectra were recorded in CDCl3 and are reported relative to SiMe4 as determined by reference to the residual ^1H solvent peak. Integration of the following chemical shift ranges were used to determine the relative amounts of olefin end group: Vinylidene: 4.55-4.75 ppm, Trisubstituted: 4.95-5.15 ppm, Internal: 5.20-5.45 ppm.
# [1] = olefin end groups of dimer by 1H NMR
smiles,measurement,setting,value
Fc1c(F)c(F)c(C[c-]2ccc3ccccc32)c(F)c1F.[Cl-].[Cl-].[Zr+4].c1cc[cH-]c1 (stereo not drawn) [MET-A],Dimer % internal,[1],6.3%
same,Dimer % trisubstituted,[1],20.7%
same,Dimer % vinylidene,[1],73.0%
same,Dimer (mol %) Total,"oligomer product by GC, 1 hour",62.3 mol %
same,Tetramer,"oligomer product by GC, 1 hour",11.8 mol %
same,Trimer,"oligomer product by GC, 1 hour",25.8 mol %
